Measured values taken from patent US9987376B2, “Delivery system for delivery of a substance into the oral cavity” (NORINVENT AB, priority 2008, dated 2018).
At least one compound was matched to its structure with a doubt left.

Test system: motion sickness in White/white laboratory standard rats
Assay: rat centrifuge motion sickness test
Type: in vivo
Conditions: 3 G, 30 seconds
Experimental: In test group A, the rats were given scopolamine.
Group B served as a control and was treated with uncoupled scopolamine and a starch matrix carrier without sugar chains.
The membrane size was 1×1 mm made out of starch. To this the labelled sugar chains were coupled and one membrane was put under the upper lip of each rat.
Three equally calibrated centrifuges were used in the test, one for each group of rats A, B, C. Each centrifuge was placed in a box having an entrance/exit through which the rats could move freely between their cage and the centrifuge box. The rats were first allowed to find their way into the centrifuge box before they were lifted up and placed in the centrifuge.
The rats were subsequently spun in the centrifuges at 3 G during 30 seconds.
After centrifugation, the ability of each group A, B, C to localize the exit in the centrifuge box and to return to the cage as well as general steadiness were observed.

CN(C)CCCC1(c2ccc(F)cc2)OCc2cc(C#N)ccc21 (centres unmarked) [citalopram] was tested, and the “behaviour / signs of motion sickness after centrifugation” value (Group A: 1/10 of a normal dose bound by sugar chains to starch matrix, under upper lip) was “not affected by centrifugation” and the “behaviour / signs of motion sickness after centrifugation” value (Group B: same amount of uncoupled substance with starch matrix without sugar chains) was “clear signs of motion sickness”.
